Results deposited as PubChem BioAssay AID493246 (Drosophila RNAi Screening Center, 2011)
The screen tested about 21,000 reagents; below is an unselected part of those with a known target gene and a result. Over the whole deposit, 429 (2%) got an active call. 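Values are raw and not normalised between plates; calls rest on per-plate z-scores that were not deposited.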 Entries without a mark were called inactive. Names joined by + are all predicted targets of the reagent. Not stated in the record: the amount of reagent, the time to read-out.

Test: 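Genome-wide search for dsRNAs that reduce cell number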 (primary screen)
System: Drosophila Kc and S2R+ cells
Knock-down reagent: long dsRNA against Drosophila genes
Detection: 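Cell number per well after knock-down, printed as raw plate values; calls were based on per-plate z-scores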
Scale: Kc cell number and S2R+ cell number: higher = more cells remaining
Rule for the call: 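Active when the per-plate z-score of cell number is 3 or more in the direction of fewer cells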

CG13895 (GeneID 38087) [DRSC08365]
- Kc cell number, rep 1: 1.23e6
- Kc cell number, rep 2: 1.46e6
- S2R+ cell number, rep 1: 1.14e6
- S2R+ cell number, rep 2: 1.22e6

CG12998 (GeneID 32710) [DRSC19518]
- Kc cell number, rep 1: 1.70e6
- Kc cell number, rep 2: 1.73e6
- S2R+ cell number, rep 1: 1.17e6
- S2R+ cell number, rep 2: 1.30e6

NimB4 (GeneID 34814) [DRSC01884]
- Kc cell number, rep 1: 1.37e6
- Kc cell number, rep 2: 1.48e6
- S2R+ cell number, rep 1: 1.27e6
- S2R+ cell number, rep 2: 1.12e6

Pex5 (GeneID 31141) [DRSC18552]
- Kc cell number, rep 1: 1.64e6
- Kc cell number, rep 2: 1.74e6
- S2R+ cell number, rep 1: 1.02e6
- S2R+ cell number, rep 2: 1.18e6

norpA (GeneID 31376) [DRSC18806]
- Kc cell number, rep 1: 5.26e5
- S2R+ cell number, rep 1: 7.73e5

jim (GeneID 43924) [DRSC11889]
- Kc cell number, rep 1: 1.42e6
- Kc cell number, rep 2: 1.46e6
- S2R+ cell number, rep 1: 1.31e6
- S2R+ cell number, rep 2: 1.30e6

MESR3 (GeneID 35116) [DRSC02463]
- Kc cell number, rep 1: 1.58e6
- Kc cell number, rep 2: 1.58e6
- S2R+ cell number, rep 1: 1.19e6
- S2R+ cell number, rep 2: 2.81e5

TbCMF46 (GeneID 34318) [DRSC02221]
- Kc cell number, rep 1: 1.63e6
- Kc cell number, rep 2: 1.58e6
- S2R+ cell number, rep 1: 1.33e6
- S2R+ cell number, rep 2: 1.45e6

CG3045 (GeneID 37531) [DRSC04331]
- Kc cell number, rep 1: 1.41e6
- Kc cell number, rep 2: 1.49e6
- S2R+ cell number, rep 1: 1.03e6
- S2R+ cell number, rep 2: 1.14e6

l(2)09851 (GeneID 46662) [DRSC04858]
- Kc cell number, rep 1: 1.49e6
- Kc cell number, rep 2: 1.50e6
- S2R+ cell number, rep 1: 1.28e6
- S2R+ cell number, rep 2: 1.31e6

E(spl)m2-BFM (GeneID 43155) [DRSC16991]
- Kc cell number, rep 1: 1.44e6
- Kc cell number, rep 2: 1.43e6
- S2R+ cell number, rep 1: 7.10e5
- S2R+ cell number, rep 2: 8.45e5

Adgf-D (GeneID 41679) [DRSC16521]
- Kc cell number, rep 1: 1.16e6
- Kc cell number, rep 2: 1.16e6
- S2R+ cell number, rep 1: 1.16e6
- S2R+ cell number, rep 2: 1.30e6

ND-39 (GeneID 40272) [DRSC11791]
- Kc cell number, rep 1: 1.40e6
- Kc cell number, rep 2: 1.45e6
- S2R+ cell number, rep 1: 9.23e5
- S2R+ cell number, rep 2: 1.02e6

mtTFB1 + Ccdc56 [DRSC10809]
- Kc cell number, rep 1: 1.39e6
- Kc cell number, rep 2: 1.41e6
- S2R+ cell number, rep 1: 1.20e6
- S2R+ cell number, rep 2: 1.17e6

CG14194 (GeneID 32908) [DRSC19549]
- Kc cell number, rep 1: 1.42e6
- Kc cell number, rep 2: 1.44e6
- S2R+ cell number, rep 1: 9.83e5
- S2R+ cell number, rep 2: 1.02e6

CG11626 (GeneID 42323) [DRSC14336]
- Kc cell number, rep 1: 1.35e6
- Kc cell number, rep 2: 1.53e6
- S2R+ cell number, rep 1: 1.05e6
- S2R+ cell number, rep 2: 1.09e6

nec (GeneID 45908) [DRSC06769]
- Kc cell number, rep 1: 1.53e6
- Kc cell number, rep 2: 1.56e6
- S2R+ cell number, rep 1: 1.28e6
- S2R+ cell number, rep 2: 1.29e6

pinta (GeneID 42635) [DRSC14698]
- Kc cell number, rep 1: 1.56e6
- Kc cell number, rep 2: 1.62e6
- S2R+ cell number, rep 1: 1.20e6
- S2R+ cell number, rep 2: 1.23e6

CR13656 (GeneID 8674041) [DRSC13705]
- Kc cell number, rep 1: 1.39e6
- Kc cell number, rep 2: 1.64e6
- S2R+ cell number, rep 1: 1.01e6
- S2R+ cell number, rep 2: 1.12e6

CR13656 (GeneID 8674041) [DRSC14656]
- Kc cell number, rep 1: 1.39e6
- Kc cell number, rep 2: 1.38e6
- S2R+ cell number, rep 1: 1.00e6
- S2R+ cell number, rep 2: 1.08e6

timeout (GeneID 41615) [DRSC12950]
- Kc cell number, rep 1: 1.44e6
- Kc cell number, rep 2: 1.64e6
- S2R+ cell number, rep 1: 1.10e6
- S2R+ cell number, rep 2: 1.23e6

timeout (GeneID 41615) [DRSC17078]
- Kc cell number, rep 1: 1.45e6
- Kc cell number, rep 2: 1.46e6
- S2R+ cell number, rep 1: 1.15e6
- S2R+ cell number, rep 2: 1.27e6

timeout (GeneID 41615) [DRSC17079]
- Kc cell number, rep 1: 1.42e6
- Kc cell number, rep 2: 1.42e6
- S2R+ cell number, rep 1: 1.15e6
- S2R+ cell number, rep 2: 1.26e6

timeout (GeneID 41615) [DRSC17080]
- Kc cell number, rep 1: 1.36e6
- Kc cell number, rep 2: 1.44e6
- S2R+ cell number, rep 1: 1.14e6
- S2R+ cell number, rep 2: 1.30e6

timeout (GeneID 41615) [DRSC17081]
- Kc cell number, rep 1: 1.52e6
- Kc cell number, rep 2: 1.54e6
- S2R+ cell number, rep 1: 9.99e5
- S2R+ cell number, rep 2: 1.09e6
